# Measured values: the supplement of paper PMC12823440, “Inhibitors supercharge kinase turnover through native proteolytic circuits” (Nature, 2025)
# Amino acid sequences for entries named in this document (tags omitted). A change or cut given only in a name is not applied to a line headed by its entry.
# UniProt O75460: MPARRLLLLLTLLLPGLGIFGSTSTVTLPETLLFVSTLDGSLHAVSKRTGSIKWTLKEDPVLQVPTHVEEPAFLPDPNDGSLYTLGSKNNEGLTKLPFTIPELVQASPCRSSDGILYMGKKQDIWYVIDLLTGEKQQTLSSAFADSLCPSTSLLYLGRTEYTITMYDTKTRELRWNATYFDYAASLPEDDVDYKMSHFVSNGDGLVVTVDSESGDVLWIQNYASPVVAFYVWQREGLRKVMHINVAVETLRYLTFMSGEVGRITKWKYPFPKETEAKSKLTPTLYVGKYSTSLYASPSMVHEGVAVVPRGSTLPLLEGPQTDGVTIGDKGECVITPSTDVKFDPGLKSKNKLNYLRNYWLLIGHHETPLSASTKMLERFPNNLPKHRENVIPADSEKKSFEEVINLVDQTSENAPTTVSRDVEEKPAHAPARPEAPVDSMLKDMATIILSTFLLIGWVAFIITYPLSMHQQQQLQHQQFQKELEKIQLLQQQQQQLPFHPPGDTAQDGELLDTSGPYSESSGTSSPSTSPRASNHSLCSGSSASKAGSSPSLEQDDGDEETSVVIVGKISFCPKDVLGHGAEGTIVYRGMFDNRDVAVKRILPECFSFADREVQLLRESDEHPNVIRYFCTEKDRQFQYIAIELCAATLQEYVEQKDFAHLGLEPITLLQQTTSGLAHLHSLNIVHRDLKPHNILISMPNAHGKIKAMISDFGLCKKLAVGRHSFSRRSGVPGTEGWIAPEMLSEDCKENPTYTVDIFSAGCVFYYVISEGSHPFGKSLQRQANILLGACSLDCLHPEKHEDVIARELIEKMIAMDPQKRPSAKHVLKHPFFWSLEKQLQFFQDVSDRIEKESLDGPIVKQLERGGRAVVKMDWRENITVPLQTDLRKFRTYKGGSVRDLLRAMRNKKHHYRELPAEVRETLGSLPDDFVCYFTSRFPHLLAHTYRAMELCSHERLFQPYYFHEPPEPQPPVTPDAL
# UniProt P11362, whole entry, looked up: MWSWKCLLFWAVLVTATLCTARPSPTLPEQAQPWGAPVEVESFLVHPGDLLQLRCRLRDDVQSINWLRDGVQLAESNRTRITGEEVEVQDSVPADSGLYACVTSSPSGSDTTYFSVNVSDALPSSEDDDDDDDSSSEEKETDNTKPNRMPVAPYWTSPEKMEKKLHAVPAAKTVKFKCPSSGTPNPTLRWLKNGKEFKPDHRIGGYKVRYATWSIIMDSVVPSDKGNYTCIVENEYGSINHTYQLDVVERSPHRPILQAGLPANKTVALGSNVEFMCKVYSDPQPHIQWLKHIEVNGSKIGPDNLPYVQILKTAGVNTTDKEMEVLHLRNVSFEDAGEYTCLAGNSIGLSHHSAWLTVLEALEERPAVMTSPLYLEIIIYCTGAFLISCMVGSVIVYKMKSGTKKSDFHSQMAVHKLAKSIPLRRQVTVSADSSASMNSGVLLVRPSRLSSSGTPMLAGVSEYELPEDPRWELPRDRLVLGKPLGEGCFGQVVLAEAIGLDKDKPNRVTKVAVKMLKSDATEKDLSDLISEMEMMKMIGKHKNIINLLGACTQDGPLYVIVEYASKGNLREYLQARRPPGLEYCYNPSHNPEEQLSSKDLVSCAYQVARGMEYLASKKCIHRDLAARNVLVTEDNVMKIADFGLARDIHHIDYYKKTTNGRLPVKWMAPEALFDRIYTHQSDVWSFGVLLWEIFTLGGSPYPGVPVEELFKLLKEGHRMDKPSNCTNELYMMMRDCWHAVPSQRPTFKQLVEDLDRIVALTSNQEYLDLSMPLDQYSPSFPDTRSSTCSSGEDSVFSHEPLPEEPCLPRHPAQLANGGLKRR
# UniProt P21802, whole entry, looked up: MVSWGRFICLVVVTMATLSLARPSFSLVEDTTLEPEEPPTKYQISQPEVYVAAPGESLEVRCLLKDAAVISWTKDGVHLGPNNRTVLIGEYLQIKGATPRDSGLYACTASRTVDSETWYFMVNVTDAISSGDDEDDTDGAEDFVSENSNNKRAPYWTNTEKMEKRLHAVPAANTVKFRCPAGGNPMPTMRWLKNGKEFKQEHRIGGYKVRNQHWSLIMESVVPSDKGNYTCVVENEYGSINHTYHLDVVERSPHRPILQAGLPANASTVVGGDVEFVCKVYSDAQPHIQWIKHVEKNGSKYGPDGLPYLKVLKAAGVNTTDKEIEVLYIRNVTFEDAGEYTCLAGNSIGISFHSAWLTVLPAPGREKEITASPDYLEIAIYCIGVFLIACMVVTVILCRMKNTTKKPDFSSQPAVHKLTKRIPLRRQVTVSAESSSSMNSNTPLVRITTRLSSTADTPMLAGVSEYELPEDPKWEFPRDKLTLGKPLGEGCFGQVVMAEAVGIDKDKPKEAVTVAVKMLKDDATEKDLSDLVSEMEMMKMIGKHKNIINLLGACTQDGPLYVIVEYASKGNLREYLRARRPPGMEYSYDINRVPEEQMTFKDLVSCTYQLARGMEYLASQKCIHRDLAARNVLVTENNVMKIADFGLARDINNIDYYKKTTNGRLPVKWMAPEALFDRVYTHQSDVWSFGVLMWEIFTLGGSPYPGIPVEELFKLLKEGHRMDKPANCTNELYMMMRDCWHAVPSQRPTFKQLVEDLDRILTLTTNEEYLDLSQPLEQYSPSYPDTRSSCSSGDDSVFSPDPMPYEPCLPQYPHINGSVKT
# UniProt P36888, whole entry: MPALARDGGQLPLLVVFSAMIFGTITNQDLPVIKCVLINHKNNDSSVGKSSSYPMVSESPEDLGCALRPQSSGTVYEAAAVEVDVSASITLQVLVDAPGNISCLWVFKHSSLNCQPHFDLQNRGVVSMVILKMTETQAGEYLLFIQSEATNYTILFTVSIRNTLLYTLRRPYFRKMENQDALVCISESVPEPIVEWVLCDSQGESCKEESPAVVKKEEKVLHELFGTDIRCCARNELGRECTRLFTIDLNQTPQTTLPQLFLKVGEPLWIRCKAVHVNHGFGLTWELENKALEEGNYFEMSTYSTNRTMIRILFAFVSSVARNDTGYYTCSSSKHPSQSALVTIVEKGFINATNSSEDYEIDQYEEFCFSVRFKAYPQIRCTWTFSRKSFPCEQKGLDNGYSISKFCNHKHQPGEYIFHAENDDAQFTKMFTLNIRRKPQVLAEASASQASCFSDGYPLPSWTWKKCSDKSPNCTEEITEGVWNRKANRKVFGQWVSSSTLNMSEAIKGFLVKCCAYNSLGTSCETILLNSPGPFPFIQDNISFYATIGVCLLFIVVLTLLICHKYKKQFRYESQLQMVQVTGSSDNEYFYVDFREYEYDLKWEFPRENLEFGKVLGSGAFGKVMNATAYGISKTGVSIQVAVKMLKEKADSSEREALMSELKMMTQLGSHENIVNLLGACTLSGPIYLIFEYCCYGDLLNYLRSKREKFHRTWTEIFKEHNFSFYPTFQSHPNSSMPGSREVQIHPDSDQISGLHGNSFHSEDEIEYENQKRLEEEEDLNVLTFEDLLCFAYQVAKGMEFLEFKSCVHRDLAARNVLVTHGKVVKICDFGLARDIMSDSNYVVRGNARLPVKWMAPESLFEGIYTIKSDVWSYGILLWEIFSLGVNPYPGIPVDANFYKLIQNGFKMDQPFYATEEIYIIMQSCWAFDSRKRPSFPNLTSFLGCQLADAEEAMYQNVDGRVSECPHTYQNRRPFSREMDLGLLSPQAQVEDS
# UniProt P06241, whole entry, looked up: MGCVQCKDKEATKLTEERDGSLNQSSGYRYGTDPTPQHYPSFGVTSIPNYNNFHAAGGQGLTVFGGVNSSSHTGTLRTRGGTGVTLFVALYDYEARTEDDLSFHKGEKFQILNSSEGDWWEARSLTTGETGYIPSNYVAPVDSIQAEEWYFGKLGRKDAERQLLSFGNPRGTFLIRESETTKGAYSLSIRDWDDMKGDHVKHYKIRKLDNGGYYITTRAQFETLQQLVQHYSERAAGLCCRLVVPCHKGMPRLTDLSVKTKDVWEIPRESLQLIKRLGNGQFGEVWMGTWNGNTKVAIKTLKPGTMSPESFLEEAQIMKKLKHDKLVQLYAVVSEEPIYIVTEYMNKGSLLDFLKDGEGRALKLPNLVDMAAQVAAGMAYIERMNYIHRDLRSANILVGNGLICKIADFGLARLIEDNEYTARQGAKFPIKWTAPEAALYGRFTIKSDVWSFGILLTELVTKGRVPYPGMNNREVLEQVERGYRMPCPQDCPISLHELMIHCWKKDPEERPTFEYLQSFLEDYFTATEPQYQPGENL
# UniProt P49840: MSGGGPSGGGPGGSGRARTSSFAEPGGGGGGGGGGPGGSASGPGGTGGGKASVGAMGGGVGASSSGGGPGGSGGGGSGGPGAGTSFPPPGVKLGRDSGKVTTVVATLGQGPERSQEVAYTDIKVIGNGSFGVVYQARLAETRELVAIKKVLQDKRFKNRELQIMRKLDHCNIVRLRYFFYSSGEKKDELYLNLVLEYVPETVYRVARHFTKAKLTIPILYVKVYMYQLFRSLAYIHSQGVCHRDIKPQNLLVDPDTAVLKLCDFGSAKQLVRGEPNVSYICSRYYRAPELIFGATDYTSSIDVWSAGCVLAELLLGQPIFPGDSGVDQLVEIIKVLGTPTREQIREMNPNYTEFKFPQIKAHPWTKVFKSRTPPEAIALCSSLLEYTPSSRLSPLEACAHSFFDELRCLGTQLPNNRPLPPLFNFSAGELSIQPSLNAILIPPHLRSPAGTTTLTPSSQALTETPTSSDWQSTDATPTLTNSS
# UniProt P14616: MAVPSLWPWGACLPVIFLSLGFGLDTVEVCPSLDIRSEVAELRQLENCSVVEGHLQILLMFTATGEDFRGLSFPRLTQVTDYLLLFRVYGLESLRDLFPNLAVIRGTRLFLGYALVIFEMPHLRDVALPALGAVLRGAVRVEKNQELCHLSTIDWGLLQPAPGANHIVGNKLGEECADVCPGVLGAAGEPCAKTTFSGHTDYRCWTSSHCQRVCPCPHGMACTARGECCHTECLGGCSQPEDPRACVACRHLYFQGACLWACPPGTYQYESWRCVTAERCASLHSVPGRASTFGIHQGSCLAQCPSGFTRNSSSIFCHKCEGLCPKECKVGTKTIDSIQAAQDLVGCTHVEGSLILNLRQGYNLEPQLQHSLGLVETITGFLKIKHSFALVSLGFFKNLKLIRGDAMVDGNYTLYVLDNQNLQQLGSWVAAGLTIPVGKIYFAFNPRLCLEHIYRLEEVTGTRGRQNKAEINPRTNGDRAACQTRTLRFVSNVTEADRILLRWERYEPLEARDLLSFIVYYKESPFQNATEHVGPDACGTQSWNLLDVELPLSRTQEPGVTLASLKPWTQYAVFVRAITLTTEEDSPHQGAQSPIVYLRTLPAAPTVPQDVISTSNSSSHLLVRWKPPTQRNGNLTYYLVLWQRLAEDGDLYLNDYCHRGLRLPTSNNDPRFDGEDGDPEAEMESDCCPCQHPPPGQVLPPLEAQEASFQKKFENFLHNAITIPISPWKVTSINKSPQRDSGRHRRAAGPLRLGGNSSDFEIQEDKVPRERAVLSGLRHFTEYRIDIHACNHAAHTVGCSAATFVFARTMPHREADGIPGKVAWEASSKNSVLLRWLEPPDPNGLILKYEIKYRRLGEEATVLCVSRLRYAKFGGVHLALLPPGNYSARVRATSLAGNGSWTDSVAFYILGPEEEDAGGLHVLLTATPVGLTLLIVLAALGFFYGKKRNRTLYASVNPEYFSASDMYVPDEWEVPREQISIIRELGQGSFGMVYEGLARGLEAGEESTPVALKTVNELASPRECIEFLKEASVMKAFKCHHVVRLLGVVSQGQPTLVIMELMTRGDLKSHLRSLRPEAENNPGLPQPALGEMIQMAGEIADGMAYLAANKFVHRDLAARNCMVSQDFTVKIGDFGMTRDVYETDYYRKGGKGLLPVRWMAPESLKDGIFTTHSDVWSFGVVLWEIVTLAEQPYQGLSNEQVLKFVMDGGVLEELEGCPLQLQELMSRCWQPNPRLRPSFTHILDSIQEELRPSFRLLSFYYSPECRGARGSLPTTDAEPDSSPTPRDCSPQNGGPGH
# Counter-ions that a name gives are not always drawn. The list shows a part of the results. The calls rarely recur for the same compound in another form.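 In K562 cells expressing nanoluciferase-fused kinases, luminescence was recorded at 4 h intervals between 2 and 18 h, normalized as percent of control with DMSO at 100% and a positive control at 0%. A significant (2 sigma) signal drop marks a time point as decreased. The authors' rule for a hit is not shown and takes in more than the number of time points.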
# Columns and labels:
# Test in all cases: kinase-Nluc reporter destabilization hit call (1 = scored as downregulated) (binary); higher = compound decreases kinase abundance
# Conditions in all cases: K562; 2-18 h
# [1] = target: ERN1 (UniProt O75460)
# [2] = target: FGFR1 (UniProt P11362)
# [3] = target: FGFR2 (UniProt P21802)
# [4] = target: FGFR3 (UniProt P22607)
# [5] = target: FGR (UniProt P09769)
# [6] = target: FLT3 (UniProt P36888)
# [7] = target: FYN (UniProt P06241)
# [8] = target: GSK3A (UniProt P49840)
# [9] = target: HER2 (UniProt P04626)
# [10] = target: INSRR (UniProt P14616)
SMILES,kinase-Nluc reporter destabilization hit call [1],kinase-Nluc reporter destabilization hit call [2],kinase-Nluc reporter destabilization hit call [3],kinase-Nluc reporter destabilization hit call [4],kinase-Nluc reporter destabilization hit call [5],kinase-Nluc reporter destabilization hit call [6],kinase-Nluc reporter destabilization hit call [7],kinase-Nluc reporter destabilization hit call [8],kinase-Nluc reporter destabilization hit call [9],kinase-Nluc reporter destabilization hit call [10]
COc1ccc(Br)cc1NC(=O)Nc1cccc2c1ccn2Cc1ccnc(N)c1 (2.5 µM),inactive: 0,inactive: 0,inactive: 0,inactive: 0,inactive: 0,inactive: 0,inactive: 0,inactive: 0,inactive: 0,inactive: 0
Nc1nccc(-c2c(-c3ccc(F)cc3)ncn2C2CCCCC2)n1 (10 µM),inactive: 0,inactive: 0,inactive: 0,inactive: 0,inactive: 0,inactive: 0,inactive: 0,inactive: 0,inactive: 0,inactive: 0
Cc1cc(Nc2cc(N3CCN(C)CC3)nc(Nc3ccc([N+](=O)[O-])cc3)n2)n[nH]1 (2.5 µM),inactive: 0,inactive: 0,inactive: 0,inactive: 0,inactive: 0,inactive: 0,inactive: 0,inactive: 0,inactive: 0,inactive: 0
Cc1cc(C(=O)NC(C)(C)C)cc(C#Cc2ccc3c4c(oc3c2)C(C)(C)c2cc(NS(C)(=O)=O)ccc2C4=O)n1 (10 µM),inactive: 0,inactive: 0,inactive: 0,inactive: 0,inactive: 0,inactive: 0,inactive: 0,inactive: 0,inactive: 0,inactive: 0
COc1cc2nccc(Oc3ccc(NC(=O)c4cn(C(C)C)c(=O)n(-c5ccc(F)cc5)c4=O)cc3F)c2cc1OC (0.5 µM),inactive: 0,inactive: 0,inactive: 0,inactive: 0,inactive: 0,inactive: 0,inactive: 0,inactive: 0,inactive: 0,inactive: 0
O=C1OC(/C=C/c2ccccc2)=NC/1=C\c1cccnc1 (10 µM),inactive: 0,inactive: 0,inactive: 0,inactive: 0,inactive: 0,inactive: 0,inactive: 0,inactive: 0,inactive: 0,inactive: 0
CCCCCc1ccc(/C=C/[C@H](O)[C@@H](CO)NC)cc1 [SK1-I (hydrochloride)] (10 µM),inactive: 0,inactive: 0,inactive: 0,inactive: 0,inactive: 0,inactive: 0,inactive: 0,inactive: 0,inactive: 0,inactive: 0
Nc1nc(NCCNc2ncc(-n3ccnc3)c(-c3ccc(Cl)cc3Cl)n2)ccc1[N+](=O)[O-] (2.5 µM),inactive: 0,inactive: 0,inactive: 0,inactive: 0,inactive: 0,inactive: 0,inactive: 0,inactive: 0,inactive: 0,inactive: 0
Cc1cc(C(=O)Nc2nc3cccc(Cl)c3n2[C@@H]2CCCCN(C(=O)/C=C/CN(C)C)C2)ccn1 [Nazartinib] (10 µM),inactive: 0,inactive: 0,inactive: 0,inactive: 0,inactive: 0,inactive: 0,inactive: 0,inactive: 0,inactive: 0,inactive: 0
CCN(CC)CCCC(C)Nc1nc(C)cc(Nc2ccc3nc(C)cc(N)c3c2)n1 (stereo not given) (10 µM),inactive: 0,inactive: 0,inactive: 0,inactive: 0,inactive: 0,inactive: 0,inactive: 0,inactive: 0,inactive: 0,inactive: 0
COc1ccc2c(Oc3ccc4c(C(=O)Nc5ccccc5N)cccc4c3)ccnc2c1 [Chiauranib] (10 µM),inactive: 0,inactive: 0,inactive: 0,inactive: 0,inactive: 0,inactive: 0,inactive: 0,inactive: 0,inactive: 0,inactive: 0
Oc1c(F)cc(-c2cnccc2-c2ccc(N3CCOCC3)cc2)cc1F (10 µM),inactive: 0,inactive: 0,inactive: 0,inactive: 0,inactive: 0,inactive: 0,inactive: 0,inactive: 0,inactive: 0,inactive: 0
COc1ccc(S(=O)(=O)Nc2cc(-c3c(O)ccc4ccccc34)c(O)c3ccccc23)cc1 (10 µM),inactive: 0,inactive: 0,inactive: 0,inactive: 0,inactive: 0,inactive: 0,inactive: 0,inactive: 0,inactive: 0,inactive: 0
COC(=O)Nc1ccc(-c2nc(N3CCOCC3)c3cnn(C4CCN(C(=O)OC)CC4)c3n2)cc1 (10 µM),inactive: 0,inactive: 0,inactive: 0,inactive: 0,inactive: 0,inactive: 0,inactive: 0,inactive: 0,inactive: 0,inactive: 0
COc1cc(-c2cc(OP(=O)(O)O)cc(-c3cc(OC)c(OC)c(OC)c3)c2)cc(OC)c1OC [Stafia-1] (10 µM),inactive: 0,inactive: 0,inactive: 0,inactive: 0,inactive: 0,inactive: 0,inactive: 0,inactive: 0,inactive: 0,inactive: 0
C=CC(=O)Nc1cc(Nc2nccc(-c3cn(C)c4ccccc34)n2)c(OC)cc1N(C)CCNC [AZ7550 Mesylate] (2.5 µM),inactive: 0,inactive: 0,inactive: 0,inactive: 0,inactive: 0,inactive: 0,inactive: 0,inactive: 0,active: 1,inactive: 0
COc1cc2ncnc(Nc3cccc(I)c3)c2cc1OC (2.5 µM),inactive: 0,inactive: 0,inactive: 0,inactive: 0,inactive: 0,inactive: 0,inactive: 0,inactive: 0,inactive: 0,inactive: 0

SMILES,kinase-Nluc reporter destabilization hit call [1],kinase-Nluc reporter destabilization hit call [2],kinase-Nluc reporter destabilization hit call [3],kinase-Nluc reporter destabilization hit call [4],kinase-Nluc reporter destabilization hit call [5],kinase-Nluc reporter destabilization hit call [6],kinase-Nluc reporter destabilization hit call [7],kinase-Nluc reporter destabilization hit call [8],kinase-Nluc reporter destabilization hit call [9],kinase-Nluc reporter destabilization hit call [10]
Fc1ccc2[nH]ccc2c1-c1nc(N2CCOCC2)c2sc(CN3CCN(CC4CC4)CC3)cc2n1 (10 µM),inactive: 0,inactive: 0,inactive: 0,inactive: 0,inactive: 0,inactive: 0,inactive: 0,inactive: 0,inactive: 0,inactive: 0
O=C1NC(=O)/C(=C\c2c[nH]c(=O)c(-c3ccc(N4CCNCC4)nc3)c2)S1 [Protein kinase inhibitors 1 hydrochloride] (10 µM),inactive: 0,inactive: 0,inactive: 0,inactive: 0,inactive: 0,inactive: 0,inactive: 0,inactive: 0,inactive: 0,inactive: 0
COCCOCCc1c(C)c2cc(OC)c(O)c(C=O)c2oc1=O (10 µM),inactive: 0,inactive: 0,inactive: 0,inactive: 0,inactive: 0,inactive: 0,inactive: 0,inactive: 0,inactive: 0,inactive: 0
O=C1Nc2ccc(I)cc2/C1=C/c1cc(Br)c(O)c(Br)c1 (10 µM),inactive: 0,inactive: 0,inactive: 0,inactive: 0,inactive: 0,inactive: 0,inactive: 0,inactive: 0,inactive: 0,inactive: 0
c1nc2c(NC3CCCCC3)nc(Nc3ccc(N4CCOCC4)cc3)nc2[nH]1 [Reversine] (10 µM),inactive: 0,inactive: 0,inactive: 0,inactive: 0,inactive: 0,inactive: 0,inactive: 0,inactive: 0,inactive: 0,inactive: 0
C=CC(=O)Nc1ccc(C(=O)Nc2[nH]nc3c2CN(C(=O)N[C@H](CN(C)C)c2ccccc2)C3(C)C)cc1 (10 µM),inactive: 0,inactive: 0,inactive: 0,inactive: 0,inactive: 0,inactive: 0,inactive: 0,inactive: 0,inactive: 0,active: 1
N#Cc1ccc(-c2cnc3[nH]cc(NC(=O)c4cccnc4)c3c2)cc1 (10 µM),inactive: 0,inactive: 0,inactive: 0,inactive: 0,inactive: 0,inactive: 0,inactive: 0,inactive: 0,inactive: 0,inactive: 0
CC(C)=CC[C@@H](O)C1=CC(=O)c2c(O)ccc(O)c2C1=O [Shikonin] (10 µM),inactive: 0,inactive: 0,inactive: 0,inactive: 0,inactive: 0,inactive: 0,inactive: 0,inactive: 0,inactive: 0,inactive: 0
CC(C)Oc1ccc(F)c(-c2cnc(N)c(C(=O)Nc3cnccc3N3CCC[C@@H](C(=O)O)C3)n2)c1 (2 µM),inactive: 0,inactive: 0,inactive: 0,inactive: 0,inactive: 0,inactive: 0,inactive: 0,inactive: 0,inactive: 0,inactive: 0
CC(C)[C@H](CO)Nc1nc(Nc2cccc(Cl)c2)c2ncn(C(C)C)c2n1 [Purvalanol A] (10 µM),inactive: 0,inactive: 0,inactive: 0,inactive: 0,inactive: 0,inactive: 0,inactive: 0,inactive: 0,inactive: 0,inactive: 0
O=c1c2c([nH]n1-c1nc3ccccc3s1)CCCC2 (10 µM),inactive: 0,inactive: 0,inactive: 0,inactive: 0,inactive: 0,inactive: 0,inactive: 0,inactive: 0,inactive: 0,inactive: 0
C[C@H]1O[C@@H](O[C@H]2CC[C@@]3(C)[C@@H](CC[C@]4(C)[C@@H]3C=C[C@]35OC[C@@]6(CCC(C)(C)C[C@H]63)[C@H](O)C[C@]54C)[C@]2(C)CO)[C@H](O)[C@@H](O[C@@H]2O[C@H](CO)[C@@H](O)[C@H](O)[C@H]2O)[C@H]1O [Saikosaponin D] (2.5 µM),inactive: 0,inactive: 0,inactive: 0,inactive: 0,inactive: 0,inactive: 0,inactive: 0,inactive: 0,inactive: 0,inactive: 0
Cc1cc([C@@H](C)Nc2ccccc2C(=O)O)c2nc(N3CCOCC3)cc(=O)n2c1 (10 µM),inactive: 0,inactive: 0,inactive: 0,inactive: 0,inactive: 0,inactive: 0,inactive: 0,inactive: 0,inactive: 0,inactive: 0
CN1CCN(c2ccc(Nc3ncc4cc(C#N)c(=O)n(C5CCCC5)c4n3)cc2)CC1 (10 µM),inactive: 0,inactive: 0,inactive: 0,inactive: 0,inactive: 0,inactive: 0,inactive: 0,inactive: 0,inactive: 0,inactive: 0
C[C@@H](Nc1ncnc2[nH]c(-c3ccc(O)cc3)cc12)c1ccccc1 (2.5 µM),inactive: 0,inactive: 0,inactive: 0,inactive: 0,inactive: 0,inactive: 0,inactive: 0,inactive: 0,inactive: 0,inactive: 0
O=C(Nc1cccnc1)c1cc(-c2ccnc(F)c2)ccc1OCc1ccccc1 (10 µM),inactive: 0,inactive: 0,inactive: 0,inactive: 0,inactive: 0,inactive: 0,inactive: 0,inactive: 0,inactive: 0,inactive: 0
